From the supplement of paper PMC12823440, “Inhibitors supercharge kinase turnover through native proteolytic circuits” (Nature, 2025)
The other results are listed elsewhere or left out. The calls rarely recur for the same compound in another form.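 Kinases, fused to nanoluciferase, were expressed in K562 cells; luminescence was measured every 4 h from 2 to 18 h as percent of control (DMSO = 100%, positive control = 0%). A time point is decreased if signal falls significantly (2 sigma). Hits were called by the authors by a rule that is not shown; the count of time points alone does not decide it.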

The chains behind the UniProt entries cited, without tags or fusion partners. Where a name states a change or a piece, a line headed by the entry shows the natural chain unless it says otherwise.
UniProt Q05397, whole entry, looked up: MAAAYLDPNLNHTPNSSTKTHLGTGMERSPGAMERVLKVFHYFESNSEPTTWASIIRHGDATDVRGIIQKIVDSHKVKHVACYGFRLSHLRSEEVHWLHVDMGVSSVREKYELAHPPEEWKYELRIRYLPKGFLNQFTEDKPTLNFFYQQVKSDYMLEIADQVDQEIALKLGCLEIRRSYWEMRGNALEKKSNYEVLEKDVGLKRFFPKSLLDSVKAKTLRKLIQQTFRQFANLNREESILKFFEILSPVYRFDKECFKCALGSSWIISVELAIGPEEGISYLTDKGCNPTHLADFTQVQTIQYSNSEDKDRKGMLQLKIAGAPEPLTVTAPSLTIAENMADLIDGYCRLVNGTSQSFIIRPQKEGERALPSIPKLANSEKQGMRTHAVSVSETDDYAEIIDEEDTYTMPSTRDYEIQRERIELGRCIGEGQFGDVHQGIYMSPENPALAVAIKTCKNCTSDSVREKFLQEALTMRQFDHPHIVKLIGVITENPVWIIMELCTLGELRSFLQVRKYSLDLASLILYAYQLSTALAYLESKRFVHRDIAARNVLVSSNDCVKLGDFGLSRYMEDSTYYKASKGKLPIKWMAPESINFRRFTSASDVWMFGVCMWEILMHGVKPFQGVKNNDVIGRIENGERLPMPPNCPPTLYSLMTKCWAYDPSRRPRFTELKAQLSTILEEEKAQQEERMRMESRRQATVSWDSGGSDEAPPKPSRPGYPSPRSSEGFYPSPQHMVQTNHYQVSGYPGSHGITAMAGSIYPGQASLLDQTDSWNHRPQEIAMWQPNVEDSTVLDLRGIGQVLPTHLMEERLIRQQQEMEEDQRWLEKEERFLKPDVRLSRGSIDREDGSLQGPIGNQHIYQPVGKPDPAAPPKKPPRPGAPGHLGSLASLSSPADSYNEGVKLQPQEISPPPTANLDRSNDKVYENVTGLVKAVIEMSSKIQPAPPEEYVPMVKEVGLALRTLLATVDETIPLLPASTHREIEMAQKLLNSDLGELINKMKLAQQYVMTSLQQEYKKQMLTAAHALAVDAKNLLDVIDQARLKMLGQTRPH
UniProt Q9BRS2: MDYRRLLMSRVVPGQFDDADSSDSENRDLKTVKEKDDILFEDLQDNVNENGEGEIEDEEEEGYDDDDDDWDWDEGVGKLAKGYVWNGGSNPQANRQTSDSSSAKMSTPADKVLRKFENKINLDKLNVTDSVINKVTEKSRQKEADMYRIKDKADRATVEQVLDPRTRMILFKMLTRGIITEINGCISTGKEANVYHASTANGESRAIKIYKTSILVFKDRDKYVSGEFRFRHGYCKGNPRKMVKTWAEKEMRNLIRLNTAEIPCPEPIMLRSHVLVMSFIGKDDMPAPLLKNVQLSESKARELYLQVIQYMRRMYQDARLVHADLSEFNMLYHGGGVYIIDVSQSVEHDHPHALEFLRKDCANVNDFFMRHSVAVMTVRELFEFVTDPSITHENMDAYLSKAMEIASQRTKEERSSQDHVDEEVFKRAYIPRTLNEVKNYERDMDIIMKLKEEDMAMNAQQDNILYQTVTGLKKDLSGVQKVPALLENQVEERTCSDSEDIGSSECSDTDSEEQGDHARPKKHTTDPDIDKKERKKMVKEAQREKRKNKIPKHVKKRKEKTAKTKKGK
UniProt Q01974, whole entry: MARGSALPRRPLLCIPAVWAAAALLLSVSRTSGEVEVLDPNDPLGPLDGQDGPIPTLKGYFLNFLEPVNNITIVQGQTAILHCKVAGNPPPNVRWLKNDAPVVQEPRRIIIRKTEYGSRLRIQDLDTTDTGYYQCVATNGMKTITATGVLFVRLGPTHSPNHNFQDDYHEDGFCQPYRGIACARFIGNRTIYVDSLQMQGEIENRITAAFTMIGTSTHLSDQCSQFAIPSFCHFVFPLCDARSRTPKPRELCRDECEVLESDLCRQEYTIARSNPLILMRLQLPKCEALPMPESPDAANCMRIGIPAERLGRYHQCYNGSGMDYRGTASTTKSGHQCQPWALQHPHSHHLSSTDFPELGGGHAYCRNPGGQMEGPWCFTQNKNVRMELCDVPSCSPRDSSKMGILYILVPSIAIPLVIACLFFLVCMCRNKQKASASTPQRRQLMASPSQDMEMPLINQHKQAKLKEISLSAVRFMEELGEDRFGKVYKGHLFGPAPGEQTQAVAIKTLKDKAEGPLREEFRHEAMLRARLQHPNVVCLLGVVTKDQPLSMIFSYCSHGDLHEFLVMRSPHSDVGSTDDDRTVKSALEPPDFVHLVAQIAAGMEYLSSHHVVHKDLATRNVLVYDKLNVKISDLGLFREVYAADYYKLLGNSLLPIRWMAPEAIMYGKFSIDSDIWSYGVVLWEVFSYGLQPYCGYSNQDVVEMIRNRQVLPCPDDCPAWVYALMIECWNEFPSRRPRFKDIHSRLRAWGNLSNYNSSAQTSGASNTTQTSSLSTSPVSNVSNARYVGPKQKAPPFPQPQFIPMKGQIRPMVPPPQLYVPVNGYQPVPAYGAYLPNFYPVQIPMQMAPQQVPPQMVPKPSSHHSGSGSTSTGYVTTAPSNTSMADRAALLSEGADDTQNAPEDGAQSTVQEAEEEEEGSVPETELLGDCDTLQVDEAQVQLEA
UniProt Q15418, whole entry: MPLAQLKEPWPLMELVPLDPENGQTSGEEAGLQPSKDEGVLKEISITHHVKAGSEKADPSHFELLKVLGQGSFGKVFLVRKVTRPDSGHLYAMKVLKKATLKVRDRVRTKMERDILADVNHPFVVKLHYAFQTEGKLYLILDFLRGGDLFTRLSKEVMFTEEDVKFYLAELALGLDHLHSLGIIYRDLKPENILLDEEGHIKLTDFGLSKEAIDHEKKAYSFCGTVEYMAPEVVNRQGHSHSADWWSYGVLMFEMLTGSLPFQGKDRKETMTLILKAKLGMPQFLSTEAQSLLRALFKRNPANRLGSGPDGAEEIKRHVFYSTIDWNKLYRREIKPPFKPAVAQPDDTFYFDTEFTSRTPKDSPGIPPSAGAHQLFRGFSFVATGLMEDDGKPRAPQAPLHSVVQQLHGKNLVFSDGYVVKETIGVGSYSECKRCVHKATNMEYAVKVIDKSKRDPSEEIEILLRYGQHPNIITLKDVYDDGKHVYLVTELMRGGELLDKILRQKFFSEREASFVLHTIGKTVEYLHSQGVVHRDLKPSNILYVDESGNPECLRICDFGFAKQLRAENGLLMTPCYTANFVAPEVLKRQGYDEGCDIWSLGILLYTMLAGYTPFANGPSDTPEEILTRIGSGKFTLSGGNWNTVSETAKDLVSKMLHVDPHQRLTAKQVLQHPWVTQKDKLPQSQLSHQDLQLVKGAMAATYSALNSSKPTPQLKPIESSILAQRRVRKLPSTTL
UniProt Q9Y6E0: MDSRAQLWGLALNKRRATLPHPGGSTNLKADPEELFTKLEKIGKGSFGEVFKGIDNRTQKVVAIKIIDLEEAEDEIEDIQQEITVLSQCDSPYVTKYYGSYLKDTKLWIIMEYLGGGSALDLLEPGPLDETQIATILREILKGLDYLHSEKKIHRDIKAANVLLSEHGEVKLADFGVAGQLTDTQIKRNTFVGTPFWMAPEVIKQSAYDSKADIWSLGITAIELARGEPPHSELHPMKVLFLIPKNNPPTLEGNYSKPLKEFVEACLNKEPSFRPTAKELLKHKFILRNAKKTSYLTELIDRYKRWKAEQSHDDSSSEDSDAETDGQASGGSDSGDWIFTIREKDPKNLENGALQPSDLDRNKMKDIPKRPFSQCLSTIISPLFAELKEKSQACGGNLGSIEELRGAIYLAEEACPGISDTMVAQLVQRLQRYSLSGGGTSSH
UniProt Q15208: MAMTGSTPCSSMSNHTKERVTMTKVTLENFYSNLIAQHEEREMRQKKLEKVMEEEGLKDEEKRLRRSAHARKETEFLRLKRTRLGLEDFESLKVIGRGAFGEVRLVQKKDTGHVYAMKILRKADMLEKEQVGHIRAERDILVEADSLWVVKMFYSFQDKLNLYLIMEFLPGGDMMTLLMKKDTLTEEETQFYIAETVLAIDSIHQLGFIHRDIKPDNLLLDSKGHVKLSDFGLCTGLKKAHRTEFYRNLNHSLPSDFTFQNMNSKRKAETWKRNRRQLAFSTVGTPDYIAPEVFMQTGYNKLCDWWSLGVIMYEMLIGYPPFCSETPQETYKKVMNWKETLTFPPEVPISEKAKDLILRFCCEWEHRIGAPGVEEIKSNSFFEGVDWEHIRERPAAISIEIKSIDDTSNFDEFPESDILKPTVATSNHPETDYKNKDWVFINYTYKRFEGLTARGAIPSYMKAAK
UniProt P42680: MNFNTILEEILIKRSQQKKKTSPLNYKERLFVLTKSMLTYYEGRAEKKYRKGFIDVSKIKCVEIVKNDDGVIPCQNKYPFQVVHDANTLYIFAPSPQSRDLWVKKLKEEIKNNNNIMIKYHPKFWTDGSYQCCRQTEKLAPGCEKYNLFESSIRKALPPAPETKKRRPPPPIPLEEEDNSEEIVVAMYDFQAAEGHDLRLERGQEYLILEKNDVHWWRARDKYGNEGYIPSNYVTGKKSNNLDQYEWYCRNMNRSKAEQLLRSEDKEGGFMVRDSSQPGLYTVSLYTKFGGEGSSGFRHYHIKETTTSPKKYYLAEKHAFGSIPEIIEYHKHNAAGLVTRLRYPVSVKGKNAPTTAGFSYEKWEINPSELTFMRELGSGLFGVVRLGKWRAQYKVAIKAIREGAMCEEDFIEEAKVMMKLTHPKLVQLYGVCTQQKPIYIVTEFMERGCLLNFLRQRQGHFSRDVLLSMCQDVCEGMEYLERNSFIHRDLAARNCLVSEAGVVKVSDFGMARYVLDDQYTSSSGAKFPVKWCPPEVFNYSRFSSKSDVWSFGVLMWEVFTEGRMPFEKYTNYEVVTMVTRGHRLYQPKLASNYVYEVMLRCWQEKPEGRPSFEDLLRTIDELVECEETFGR
UniProt P29597: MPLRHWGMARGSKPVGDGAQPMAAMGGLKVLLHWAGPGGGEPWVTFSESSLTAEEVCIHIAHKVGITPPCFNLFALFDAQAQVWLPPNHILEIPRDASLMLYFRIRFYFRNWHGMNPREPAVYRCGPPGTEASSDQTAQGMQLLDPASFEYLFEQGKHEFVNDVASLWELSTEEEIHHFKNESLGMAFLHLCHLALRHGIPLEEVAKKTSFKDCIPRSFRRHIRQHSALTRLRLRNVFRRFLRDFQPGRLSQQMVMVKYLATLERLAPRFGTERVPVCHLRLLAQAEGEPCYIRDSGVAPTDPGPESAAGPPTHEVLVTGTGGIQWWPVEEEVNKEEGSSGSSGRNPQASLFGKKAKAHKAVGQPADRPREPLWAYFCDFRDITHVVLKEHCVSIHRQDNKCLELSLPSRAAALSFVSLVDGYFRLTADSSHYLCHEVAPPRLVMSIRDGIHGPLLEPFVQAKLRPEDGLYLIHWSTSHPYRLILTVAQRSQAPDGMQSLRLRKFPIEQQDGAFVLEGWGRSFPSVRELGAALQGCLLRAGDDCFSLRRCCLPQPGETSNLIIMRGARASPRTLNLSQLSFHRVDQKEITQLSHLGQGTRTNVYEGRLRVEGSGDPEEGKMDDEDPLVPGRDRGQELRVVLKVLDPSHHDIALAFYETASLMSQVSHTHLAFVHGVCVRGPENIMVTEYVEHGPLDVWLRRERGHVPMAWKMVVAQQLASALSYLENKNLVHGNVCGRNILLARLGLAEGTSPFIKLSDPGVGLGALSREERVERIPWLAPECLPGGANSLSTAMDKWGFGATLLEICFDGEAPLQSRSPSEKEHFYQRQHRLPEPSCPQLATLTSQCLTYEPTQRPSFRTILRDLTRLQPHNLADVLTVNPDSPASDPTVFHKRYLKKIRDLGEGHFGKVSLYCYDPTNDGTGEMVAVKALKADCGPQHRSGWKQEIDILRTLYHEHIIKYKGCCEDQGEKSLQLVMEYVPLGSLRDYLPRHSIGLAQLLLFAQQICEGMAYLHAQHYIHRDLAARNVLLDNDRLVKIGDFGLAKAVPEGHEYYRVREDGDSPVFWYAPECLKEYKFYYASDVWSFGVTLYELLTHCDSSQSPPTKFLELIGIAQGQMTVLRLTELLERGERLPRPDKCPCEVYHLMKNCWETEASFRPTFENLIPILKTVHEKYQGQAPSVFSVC
UniProt Q6PHR2: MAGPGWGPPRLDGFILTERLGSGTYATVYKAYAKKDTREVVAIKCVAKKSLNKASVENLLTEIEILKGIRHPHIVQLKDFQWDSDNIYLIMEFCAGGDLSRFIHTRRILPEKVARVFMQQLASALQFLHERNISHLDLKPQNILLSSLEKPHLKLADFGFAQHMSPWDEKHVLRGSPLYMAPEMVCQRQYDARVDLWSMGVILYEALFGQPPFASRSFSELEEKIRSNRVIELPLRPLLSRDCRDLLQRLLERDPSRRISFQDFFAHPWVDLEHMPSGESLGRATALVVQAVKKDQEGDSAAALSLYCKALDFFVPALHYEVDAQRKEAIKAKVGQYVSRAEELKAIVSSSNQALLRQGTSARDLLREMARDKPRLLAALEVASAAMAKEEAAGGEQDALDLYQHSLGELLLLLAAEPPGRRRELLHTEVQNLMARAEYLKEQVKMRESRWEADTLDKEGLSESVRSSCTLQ

Experiments:
Assay in all cases: number of time points (of 5) at which kinase-Nluc abundance scored as decreased, DMSO-normalised (count); higher = more persistent destabilization
Conditions in all cases: K562; 2-18 h
PRKCA = PRKCA (UniProt P17252)
PTK2 = PTK2 (UniProt Q05397)
PTK2B = PTK2B (UniProt Q14289)
RAF1 = RAF1 (UniProt P04049)
[1] = target: RAF1_S257L (clone: RAF1_mut) (UniProt P04049)
RET = RET (UniProt P07949)
[2] = target: RET_M918T (clone: RET_mut) (UniProt P07949)
RIOK1 = RIOK1 (UniProt Q9BRS2)
RIPK1 = RIPK1 (UniProt Q13546)
RIPK2 = RIPK2 (UniProt O43353)
ROR2 = ROR2 (UniProt Q01974)
RPS6KA1 = RPS6KA1 (UniProt Q15418)
SPHK1 = SPHK1 (UniProt Q9NYA1)
SRC = SRC (UniProt P12931)
STK24 = STK24 (UniProt Q9Y6E0)
STK38 = STK38 (UniProt Q15208)
SYK = SYK (UniProt P43405)
TEC = TEC (UniProt P42680)
TYK2 = TYK2 (UniProt P29597)
ULK3 = ULK3 (UniProt Q6PHR2)

Measured: number of time points

CC1(C)C=Cc2c(ccc(C(=O)/C=C/c3ccc(O)cc3)c2O)O1 [4-Hydroxylonchocarpin] (10 µM)
0: all assays above

O=C(C#Cc1ccccc1)c1cccc([N+](=O)[O-])c1 (10 µM)
0: all assays above

NC(=O)c1ccccc1Nc1ccnc(Nc2cccc(O)c2)n1 (10 µM)
1: PTK2 | [2] | RIPK2 | STK38
2: RIOK1 | TEC
4: [1] | TYK2
3: RAF1 | RET | RIPK1
0: all other assays above

Not a retest: 2 of the compounds above.
O=C(C#Cc1ccccc1)c1cccc([N+](=O)[O-])c1 (10 µM)
0: all assays above

NC(=O)c1ccccc1Nc1ccnc(Nc2cccc(O)c2)n1 (10 µM)
1: PTK2 | [2] | RIPK2 | STK38
2: RIOK1 | TEC
4: [1] | TYK2
3: RAF1 | RET | RIPK1
0: all other assays above

Remaining list, next part

NCCNS(=O)(=O)c1ccc(Cl)c2ccncc12 [CKI-7 (free base)] (10 µM)
0: all assays above

CCOC(=O)c1c(Nc2ccccc2Cl)oc(/C=C2\C=Nc3ncccc32)c1O (10 µM)
0: all assays above

COCCNc1cc(NC(=O)N2CCCc3cc(CN4CCOCC4=O)c(C=O)nc32)ncc1C#N (10 µM)
0: all assays above

CNCCOc1ccccc1C1(Nc2nccn(-c3cc(C(=O)NC4CC4)cc(F)c3C)c2=O)CC1 (10 µM)
0: all assays above

Nc1nc(Nc2ccc3c(c2)CC[C@@H](N2CCCC2)CC3)nn1-c1cc2c(nn1)-c1ccccc1CCC2 [Bemcentinib] (2.5 µM)
0: all assays above

O=C(O)/C=C(\CCc1ccc(Cl)cc1)c1ccccc1 (10 µM)
0: all assays above

CC(C)Cn1ncc2cc(Oc3ccc(F)cc3F)c(C(=O)NCCN(C)C)cc21 [p38α inhibitor 1] (10 µM)
0: all assays above

COc1cc2c(cc1OC)[C@@H]1C(=O)c3ccc4c(c3O[C@@H]1CO2)C=CC(C)(C)O4 [Deguelin] (10 µM)
0: all assays above

O=C1CCC(N2C(=O)c3cccc(OCCCCCOc4ccc(CC(=O)Nc5cc(C6CCC6)[nH]n5)cc4)c3C2=O)C(=O)N1 (stereo not given) [PROTAC CDK9 Degrader-1] (10 µM)
2: PTK2 | RIPK1
1: RAF1 | [2] | RIOK1 | STK38 | TYK2
0: all other assays above

COc1ccc(Cl)cc1N(CC(=O)Nc1ccc2c(c1)OCO2)S(=O)(=O)c1ccccc1 (2.5 µM)
0: all assays above

C[C@H](Nc1cc2c(-c3ccc4c(c3)OCO4)noc2cn1)c1ccccc1 (10 µM)
0: all assays above

O=C(Nc1ccc(Cl)cc1)C1CN(C(=O)c2cccc(-c3ccco3)c2)CC(F)(F)C1 (stereo not given) (2.5 µM)
0: all assays above

COc1cc2nnc(C(N)=O)c(Nc3ccc(C)cc3F)c2cc1N1CCN(CCO)CC1 (2.5 µM)
0: all assays above

Cc1cccc(-c2nn3c(c2-c2ccnc4ccc(C(N)=O)cc24)CCC3)n1 [Galunisertib] (10 µM)
0: all assays above

CC(C1CC1)n1cnc2c(NCc3cccc(C(F)(F)F)c3)nc(NCCN(C)C)nc21 (stereo not given) (10 µM)
0: all assays above

Cc1nc(NC(=O)N2CCC[C@H]2C(N)=O)sc1-c1ccnc(C(C)(C)C(F)(F)F)c1 [Alpelisib] (2.5 µM)
0: all assays above

COc1ccc(-c2cc(=O)c3c(O)cc(O)cc3o2)cc1-c1c(O)cc(O)c2c(=O)cc(-c3ccc(O)cc3)oc12 [Bilobetin] (2.5 µM)
0: all assays above

Cc1ccc(C2CC(=O)NC(SCC(=O)Nc3nccs3)=C2C#N)cc1 (stereo not given) [Necrostatin-34] (10 µM)
0: all assays above

Nc1ccc(C(=O)Nc2cccc(-c3nc(N4CCOCC4)c4oc5ncccc5c4n3)c2)cn1 (10 µM)
2: ULK3
0: all other assays above

O=C1NC(=O)C(Cc2c[nH]c3c(Cl)cccc23)N1 (stereo not given) [Necroptosis-IN-1] (10 µM)
0: all assays above

CN1CCC(Nc2nc(Nc3ccc(Oc4ccccc4)cc3)c3c(=O)[nH]cc(Br)c3n2)CC1 (2.5 µM)
3: PTK2 | [2] | SPHK1 | STK38
4: TYK2
0: all other assays above

CC(=O)O/N=C1/C(c2c(O)[nH]c3cc(Br)ccc23)=Nc2ccccc21 [BIO-acetoxime] (10 µM)
0: all assays above
